Experimental findings from article PMC9241042 are described below.

Protein sequences, listed by entry. Tags and fused reporters are not part of them.
UniProt Q5JSL3: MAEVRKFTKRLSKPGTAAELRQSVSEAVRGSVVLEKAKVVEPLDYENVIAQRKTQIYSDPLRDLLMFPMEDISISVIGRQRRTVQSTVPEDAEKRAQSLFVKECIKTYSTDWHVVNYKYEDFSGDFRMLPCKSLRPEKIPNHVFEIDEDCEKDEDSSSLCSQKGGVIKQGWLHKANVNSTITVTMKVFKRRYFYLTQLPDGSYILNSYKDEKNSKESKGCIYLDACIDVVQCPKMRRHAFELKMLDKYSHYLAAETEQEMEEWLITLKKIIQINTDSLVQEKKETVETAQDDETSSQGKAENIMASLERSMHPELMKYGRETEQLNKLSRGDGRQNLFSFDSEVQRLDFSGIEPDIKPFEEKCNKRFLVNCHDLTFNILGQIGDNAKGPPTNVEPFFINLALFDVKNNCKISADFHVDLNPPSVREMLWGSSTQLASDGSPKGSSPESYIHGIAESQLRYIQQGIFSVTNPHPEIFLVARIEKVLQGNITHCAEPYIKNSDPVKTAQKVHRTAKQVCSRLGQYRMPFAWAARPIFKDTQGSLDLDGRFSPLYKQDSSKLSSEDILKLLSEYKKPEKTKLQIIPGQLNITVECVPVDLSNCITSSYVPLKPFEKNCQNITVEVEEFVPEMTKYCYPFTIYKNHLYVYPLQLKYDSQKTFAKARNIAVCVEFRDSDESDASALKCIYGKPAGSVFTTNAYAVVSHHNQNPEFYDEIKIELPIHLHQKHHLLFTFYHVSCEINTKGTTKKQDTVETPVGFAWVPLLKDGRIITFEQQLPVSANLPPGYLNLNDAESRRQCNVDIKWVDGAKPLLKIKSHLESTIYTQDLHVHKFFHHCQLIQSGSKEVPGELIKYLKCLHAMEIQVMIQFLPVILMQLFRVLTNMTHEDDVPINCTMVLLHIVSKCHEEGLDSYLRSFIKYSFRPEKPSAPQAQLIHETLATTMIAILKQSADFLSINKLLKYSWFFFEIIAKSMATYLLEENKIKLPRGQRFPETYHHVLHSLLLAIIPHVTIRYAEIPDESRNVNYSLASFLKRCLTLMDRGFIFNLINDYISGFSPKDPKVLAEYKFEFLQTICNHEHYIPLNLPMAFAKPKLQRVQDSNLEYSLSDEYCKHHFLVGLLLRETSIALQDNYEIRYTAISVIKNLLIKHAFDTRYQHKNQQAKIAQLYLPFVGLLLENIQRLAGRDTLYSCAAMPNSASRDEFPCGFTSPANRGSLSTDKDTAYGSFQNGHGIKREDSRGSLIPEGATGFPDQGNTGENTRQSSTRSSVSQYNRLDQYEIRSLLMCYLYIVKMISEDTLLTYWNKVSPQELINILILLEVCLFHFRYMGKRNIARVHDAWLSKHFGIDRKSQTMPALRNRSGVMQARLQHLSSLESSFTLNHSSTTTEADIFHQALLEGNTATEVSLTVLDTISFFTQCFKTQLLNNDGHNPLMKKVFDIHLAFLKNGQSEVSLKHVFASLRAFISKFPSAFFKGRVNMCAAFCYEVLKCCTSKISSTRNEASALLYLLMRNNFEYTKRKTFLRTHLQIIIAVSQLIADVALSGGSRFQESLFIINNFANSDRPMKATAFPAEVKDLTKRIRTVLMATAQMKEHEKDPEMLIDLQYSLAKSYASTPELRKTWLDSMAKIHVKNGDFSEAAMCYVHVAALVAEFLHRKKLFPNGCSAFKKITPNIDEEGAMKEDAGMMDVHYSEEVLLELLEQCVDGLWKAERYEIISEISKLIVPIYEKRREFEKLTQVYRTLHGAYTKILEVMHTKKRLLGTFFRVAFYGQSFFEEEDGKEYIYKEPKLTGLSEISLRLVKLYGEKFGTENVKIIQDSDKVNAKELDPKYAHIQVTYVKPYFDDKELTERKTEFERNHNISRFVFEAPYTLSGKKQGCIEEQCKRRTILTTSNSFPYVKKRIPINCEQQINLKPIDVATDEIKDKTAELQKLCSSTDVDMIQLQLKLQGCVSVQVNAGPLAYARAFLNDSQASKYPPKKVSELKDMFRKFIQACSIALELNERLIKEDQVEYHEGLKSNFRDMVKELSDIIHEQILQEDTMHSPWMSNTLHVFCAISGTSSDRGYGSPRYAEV
UniProt Q07912: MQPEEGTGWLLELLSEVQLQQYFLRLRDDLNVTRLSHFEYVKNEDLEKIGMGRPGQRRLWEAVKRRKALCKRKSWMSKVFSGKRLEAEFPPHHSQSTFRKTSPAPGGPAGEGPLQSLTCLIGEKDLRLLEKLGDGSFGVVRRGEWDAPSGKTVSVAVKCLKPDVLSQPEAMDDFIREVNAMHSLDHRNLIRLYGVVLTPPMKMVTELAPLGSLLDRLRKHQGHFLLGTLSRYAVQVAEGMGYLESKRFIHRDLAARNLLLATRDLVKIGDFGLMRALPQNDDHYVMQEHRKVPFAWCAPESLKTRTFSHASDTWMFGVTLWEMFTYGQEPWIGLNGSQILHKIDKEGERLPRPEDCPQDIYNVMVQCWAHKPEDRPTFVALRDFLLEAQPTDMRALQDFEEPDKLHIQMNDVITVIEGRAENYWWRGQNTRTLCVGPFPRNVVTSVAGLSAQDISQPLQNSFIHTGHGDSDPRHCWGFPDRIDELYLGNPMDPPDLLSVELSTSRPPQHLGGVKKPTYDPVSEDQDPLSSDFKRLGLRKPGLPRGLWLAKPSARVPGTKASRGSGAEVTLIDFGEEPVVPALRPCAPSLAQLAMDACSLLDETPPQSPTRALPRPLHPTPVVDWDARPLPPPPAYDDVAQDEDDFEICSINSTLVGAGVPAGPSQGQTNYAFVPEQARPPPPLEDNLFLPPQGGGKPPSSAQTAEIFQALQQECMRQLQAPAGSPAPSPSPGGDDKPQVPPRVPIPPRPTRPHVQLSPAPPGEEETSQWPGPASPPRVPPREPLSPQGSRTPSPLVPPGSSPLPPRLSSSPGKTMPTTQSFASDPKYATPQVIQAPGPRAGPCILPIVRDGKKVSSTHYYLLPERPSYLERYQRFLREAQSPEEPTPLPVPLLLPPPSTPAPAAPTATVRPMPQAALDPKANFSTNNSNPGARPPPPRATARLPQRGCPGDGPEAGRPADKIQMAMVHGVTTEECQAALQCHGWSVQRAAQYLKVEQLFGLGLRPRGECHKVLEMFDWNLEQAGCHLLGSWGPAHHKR

These are yes or no findings as the source states them, for the method shown. Binding seen in cells or lysates may run through a third protein. Some results given as binding are weak or reduced against the parent protein; the word gives no strength.

The target of assay [1] is DOCK11-BioFLAGHis (full-length dedicator of cytokinesis 11) (UniProt Q5JSL3). Nature of the assay: pull-down; purified DOCK11-BioFLAGHis immobilised on streptavidin-conjugated magnetic beads in TBST; lysate containing T7-Ack1-His mixed 3 h at 4 °C, with or without DCS8-42A; blot with anti-FLAG or anti-Ack1 antibody; only the target purified.
Assay [2] shares this target. Nature of the assay: co-IP; DOCK11-BioFLAGHis and T7-Ack1-His coexpressed in HEK293T cells for 48 h, cells treated or not with 10M-D42AN for 24 h; lysate on streptavidin-conjugated magnetic beads 3 h at 4 °C; washed with TBST; blot with anti-FLAG or anti-Ack1 antibody.

On to “T7-Ack1-His (activated cdc42-associated kinase 1) (from UniProt Q07912 1-1038)”, for which the binding entry in assay [1] and in assay [2] was “binds” throughout.
